Assay [1] concerns the target T1, dBRE1 (Drosophila (endogenous in embryos)) (UniProt Q9VRP9).
T1 sequence: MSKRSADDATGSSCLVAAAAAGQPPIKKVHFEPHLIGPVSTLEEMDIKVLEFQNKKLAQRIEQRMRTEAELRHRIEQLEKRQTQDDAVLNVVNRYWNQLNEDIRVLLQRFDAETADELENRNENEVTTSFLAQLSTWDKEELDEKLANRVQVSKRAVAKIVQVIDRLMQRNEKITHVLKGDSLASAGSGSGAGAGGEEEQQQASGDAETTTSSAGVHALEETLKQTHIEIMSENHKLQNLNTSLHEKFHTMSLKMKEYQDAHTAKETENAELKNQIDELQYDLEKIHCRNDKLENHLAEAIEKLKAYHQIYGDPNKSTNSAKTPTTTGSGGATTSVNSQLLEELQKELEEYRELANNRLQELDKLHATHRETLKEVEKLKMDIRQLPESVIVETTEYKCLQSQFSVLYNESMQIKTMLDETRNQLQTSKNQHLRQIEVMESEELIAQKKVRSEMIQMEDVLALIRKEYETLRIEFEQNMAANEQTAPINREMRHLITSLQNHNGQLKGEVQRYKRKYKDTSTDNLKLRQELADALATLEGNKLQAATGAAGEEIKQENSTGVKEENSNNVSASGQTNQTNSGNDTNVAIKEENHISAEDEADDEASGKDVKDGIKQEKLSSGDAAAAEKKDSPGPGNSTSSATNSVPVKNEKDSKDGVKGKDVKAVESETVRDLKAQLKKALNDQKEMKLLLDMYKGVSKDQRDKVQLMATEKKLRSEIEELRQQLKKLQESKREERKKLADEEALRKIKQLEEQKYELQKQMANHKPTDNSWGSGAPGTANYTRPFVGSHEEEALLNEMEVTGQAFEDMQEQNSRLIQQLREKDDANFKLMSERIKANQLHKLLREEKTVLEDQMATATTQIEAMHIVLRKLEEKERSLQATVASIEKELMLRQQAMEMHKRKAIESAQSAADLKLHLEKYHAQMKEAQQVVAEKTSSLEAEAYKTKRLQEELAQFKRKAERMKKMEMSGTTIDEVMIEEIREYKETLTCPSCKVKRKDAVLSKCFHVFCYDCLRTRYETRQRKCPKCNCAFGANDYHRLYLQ
Put plainly: co-IP; Drosophila embryonic nuclear protein extracts; IP with antibodies against the endogenous proteins (dRYBP, SCE, dKDM2, dBRE1; reverse: PSC, PC, PH, E(Z)); Western blot; mock: pre-immune serum. On the technique in general: A western blot detects proteins with antibodies after separation by electrophoresis.

The target of assay [2] is T2, Polycomb (Drosophila (endogenous in embryos)) (UniProt P26017).
T2 sequence: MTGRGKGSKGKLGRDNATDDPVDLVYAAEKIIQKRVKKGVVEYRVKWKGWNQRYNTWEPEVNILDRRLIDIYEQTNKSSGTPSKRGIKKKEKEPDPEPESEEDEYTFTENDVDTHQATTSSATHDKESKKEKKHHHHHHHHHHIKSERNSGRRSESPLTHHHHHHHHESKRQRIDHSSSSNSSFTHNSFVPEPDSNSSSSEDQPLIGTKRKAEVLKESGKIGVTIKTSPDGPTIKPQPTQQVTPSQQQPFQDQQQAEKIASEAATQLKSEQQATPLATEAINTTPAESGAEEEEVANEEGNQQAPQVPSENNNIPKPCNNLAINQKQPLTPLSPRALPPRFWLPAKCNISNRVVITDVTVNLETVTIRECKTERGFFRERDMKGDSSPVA
The description is as above.

Assay [3] concerns the target T3, E(Z) (Drosophila (endogenous in embryos)) (UniProt Q9VDC6).
T3 sequence: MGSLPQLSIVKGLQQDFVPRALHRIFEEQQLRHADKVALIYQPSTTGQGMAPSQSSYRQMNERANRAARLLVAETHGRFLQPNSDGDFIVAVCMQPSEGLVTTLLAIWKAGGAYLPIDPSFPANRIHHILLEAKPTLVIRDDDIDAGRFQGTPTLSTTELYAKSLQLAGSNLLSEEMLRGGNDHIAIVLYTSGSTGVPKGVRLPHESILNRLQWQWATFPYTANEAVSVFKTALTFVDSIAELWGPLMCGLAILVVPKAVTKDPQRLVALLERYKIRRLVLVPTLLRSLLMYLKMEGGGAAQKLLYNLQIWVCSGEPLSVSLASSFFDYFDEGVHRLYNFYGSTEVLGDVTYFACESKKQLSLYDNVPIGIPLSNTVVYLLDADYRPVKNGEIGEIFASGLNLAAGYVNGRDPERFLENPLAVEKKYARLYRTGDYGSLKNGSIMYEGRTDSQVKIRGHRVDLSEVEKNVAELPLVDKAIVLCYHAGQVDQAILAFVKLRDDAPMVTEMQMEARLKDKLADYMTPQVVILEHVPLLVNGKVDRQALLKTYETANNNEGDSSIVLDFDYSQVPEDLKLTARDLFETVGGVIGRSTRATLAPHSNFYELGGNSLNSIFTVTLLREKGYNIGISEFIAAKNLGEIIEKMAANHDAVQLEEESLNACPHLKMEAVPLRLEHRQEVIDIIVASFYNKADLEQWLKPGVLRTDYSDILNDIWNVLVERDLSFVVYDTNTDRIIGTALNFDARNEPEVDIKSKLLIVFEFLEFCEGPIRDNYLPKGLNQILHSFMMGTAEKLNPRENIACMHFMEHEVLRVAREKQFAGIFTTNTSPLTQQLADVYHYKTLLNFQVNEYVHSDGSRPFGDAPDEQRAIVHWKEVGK
Described as above.

Assay [4] addresses dRYBP (Drosophila (endogenous in embryos)). The assay is described as above.
The target in assay [5] is dRYBPΔNZF-GST (Drosophila). The experiment in a line: pull-down; dRYBP-GST or dRYBPΔNZF-GST as bait; Drosophila embryonic nuclear protein extracts; Western blot; mock: protein-GST; only the target purified.
Assay [6] deals with dRYBP-GST (Drosophila). The assay is described as above.

The values that follow come from PMC4240632.

No constants are given. Whether binding was seen depends on the method and setting. In cells and extracts the contact can be indirect. For some assays here: Binding can be weak; no strength is given.

As to “dKDM2 (Drosophila (endogenous in embryos))”, the binding result in assay [1] is given as “no binding”.

As for “dRYBP (Drosophila (endogenous in embryos))”, the binding result in assay [2] and in assay [3] was “no binding” each time.

B1: dBRE1 (protein, UniProt Q9VRP9 1-1044)
chain: T1 sequence
For the molecule B1, the binding result in assay [4], in assay [5] and in assay [6] was “binds” in each case.

B2: E(Z) (protein, UniProt Q9VDC6 1-879)
chain: T3 sequence
In the case of B2, the binding result in assay [4] is “no binding”.

B3: Polycomb (protein, UniProt P26017 1-390)
chain: T2 sequence
Regarding B3, in assay [4], the binding entry was “no binding”.

B4: SCE (protein, UniProt Q9VB08 1-435)
chain: MTSLDPAPNKTWELSLYELQRKPQEVITDSTEIAVSPRSLHSELMCPICLDMLKKTMTTKECLHRFCSDCIVTALRSGNKECPTCRKKLVSKRSLRADPNFDLLISKIYPSREEYEAIQEKVMAKFNQTQSQQALVNSINEGIKLQSQNRPQRFRTKGGGGGGGGGGNGNGAANVAAPPAPGAPTAVGRNASNQMHVHDTASNDSNSNTNSIDRENRDPGHSGTSAASAITSASNAAPSSSANSGASTSATRMQVDDASNPPSVRSTPSPVPSNSSSSKPKRAMSVLTSERSEESESDSQMDCRTEGDSNIDTEGEGNGELGINDEIELVFKPHPTEMSADNQLIRALKENCVRYIKTTANATVDHLSKYLAMRLTLDLGADLPEACRVLNFCIYVAPQPQQLVILNGNQTLHQVNDKFWKVNKPMEMYYSWKKT
Regarding B4, the binding result in assay [4], in assay [5] and in assay [6] was “binds” throughout.
